In PubChem BioAssay AID2685 (National Center for Advancing Translational Sciences (NCATS), 2010):
The list shows a part of the results. The main result of the screen is listed elsewhere. These columns were measured beside it and carry no call. The list favours compounds with an active or inconclusive main result. The note in brackets gives the kind of curve behind each potency; many fits are weak. Where a SMILES comes first, the peptide text is derived from it. The star is where a group is joined. Boc = CC(C)(C)OC(=O)*

Assay: qHTS Assay for Lipid Storage Modulators in Drosophila S3 Cells;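 as to cell number change: cells counted by Cell Tracker Red CMTPX staining in the red channel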
Conditions: BODIPY lipid droplet fluorescence, 18-24 h; for cell number change: measured here: cell count max response, cells fed with added oleic acid
Outline: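 Drosophila S3 cells loaded with oleic acid (400 uM, as added) and compounds at several concentrations; lipid droplets imaged by 488-nm laser-scanning cytometry, 500–530 nm intensity and object ratio to cell channel. Percent activity normalized to 20 uM Triacsin C.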

[1] = measured here: lipid fluorescence (Fed channel) AC50, cells fed with added oleic acid
[2] = measured here: cell number channel AC50, cells fed with added oleic acid

Structure (SMILES) | cell number change | AC50 [1] | AC50 [2]
CCCNC(=O)CCc1c(C)nc2c(c(C)nn2-c2ccc(C)cc2)c1C | -4.84% | 1.3 µM [rising, full curve] | 
Cc1cccc(CCNC(=O)c2cccc3c2C(=O)N(C2CCCCC2)C3)c1 | 12.2% | 23.1 µM [rising, partial curve, poor fit] | 
O=C(NC1CCCCC1)N1CCC(n2c(=O)[nH]c3ccccc32)CC1 | -14% | 0.116 µM [falling, full curve, poor fit] | 
Cc1cc(C)n(CCC(=O)N2CCN(S(=O)(=O)c3ccc(C)c(C)c3)CC2)n1 | -0.435% |  | 
CC1CCCCC12NC(=O)N(CC(=O)N1CCN(S(=O)(=O)Cc3ccccc3)CC1)C2=O (centres undefined) | 32.9% | 29.1 µM [rising, single point] | 29.1 µM [rising, single point]
CC(/C=C/c1ccccc1)=N\NC(=O)c1ccc2c(c1)OCCO2 | 19.6% | 1.84 µM [rising, partial curve] | 
O=C(NCCc1ccc(Cl)cc1Cl)c1cc([N+](=O)[O-])c[nH]c1=O | -10.1% | 6.51 µM [falling, single point] | 
COC(=O)c1c(NC(=O)CC2SCC(C(=O)OC)NC2=O)sc2c1CCCC2 (centres undefined) | 46.9% |  | 2.06 µM [rising, full curve, poor fit]
OC(c1ccc(Cl)cc1)c1nccc2ccccc12 (centres undefined) | -0.587% |  | 
CCN(Cc1ccccc1)C(c1cc2cc(C)cc(C)c2[nH]c1=O)c1nnnn1CCOC (centres undefined) | -47.3% | 20.6 µM [falling, partial curve] | 16.4 µM [falling, partial curve]
CC1CCN(CC(=O)Nc2ccc(S(=O)(=O)N3CCC(C)CC3)cc2)CC1 | 2.11% |  | 
O=C(O)CN1C(=O)/C(=C/c2ccc(N3CCCCC3)o2)SC1=S | -95.4% | 23.1 µM [falling, partial curve] | 20.6 µM [falling, partial curve]
Cc1ccc(N=C2NC(=O)/C(=C/C=C/c3ccco3)S2)cc1C | 4.6% | 0.92 µM [falling, full curve, poor fit] | 
CCOC(=O)c1c(C)[nH]c(C(=O)COC(=O)C2CC2)c1C | 22.1% |  | 
CCOC(=O)CNC(=O)CSc1nc2ncc(Br)cc2[nH]1 | 12.7% | 0.092 µM [falling, single point] | 
Cc1cc(C(=O)OCC(=O)NCc2ccc3c(c2)OCO3)c2ccccc2n1 | -25.1% |  | 
CC(C)c1ccc2oc(-c3ccc(N)cc3)nc2c1 | -40.1% | 32.6 µM [falling, single point] | 16.4 µM [falling, partial curve, poor fit]
Cc1ccc(/C=C/C(=O)OCC(=O)NCc2ccccc2)o1 | -2.41% |  | 
CCOC(=O)C1=C(C)Nc2ccccc2N/C1=N\S(=O)(=O)c1cccc(Cl)c1 | -23.2% | 4.61 µM [rising, partial curve, poor fit] | 
COc1ccc(/C=N/Nc2ccc([N+](=O)[O-])cc2)cc1O | -19.2% | 29.1 µM [falling, single point] | 
O=C(Nc1ccccc1)NC1CCCCC1 | -36.2% |  | 0.411 µM [falling, full curve]

Rewritten in markdown: entries from further up.

| Structure (SMILES) | cell number change | AC50 [1] | AC50 [2] |
| --- | --- | --- | --- |
| CC1CCCCC12NC(=O)N(CC(=O)N1CCN(S(=O)(=O)Cc3ccccc3)CC1)C2=O (centres undefined) | 32.9% | 29.1 µM [rising, single point] | 29.1 µM [rising, single point] |
| O=C(NCCc1ccc(Cl)cc1Cl)c1cc([N+](=O)[O-])c[nH]c1=O | -10.1% | 6.51 µM [falling, single point] |  |
| O=C(O)CN1C(=O)/C(=C/c2ccc(N3CCCCC3)o2)SC1=S | -95.4% | 23.1 µM [falling, partial curve] | 20.6 µM [falling, partial curve] |
| Cc1ccc(N=C2NC(=O)/C(=C/C=C/c3ccco3)S2)cc1C | 4.6% | 0.92 µM [falling, full curve, poor fit] |  |
| CCOC(=O)c1c(C)[nH]c(C(=O)COC(=O)C2CC2)c1C | 22.1% |  |  |
| Cc1ccc(/C=C/C(=O)OCC(=O)NCc2ccccc2)o1 | -2.41% |  |  |

The list goes on.

Structure (SMILES) | cell number change | AC50 [1] | AC50 [2]
CN(CC(=O)Nc1cccc(F)c1)C(=O)c1cc([N+](=O)[O-])ccc1N1CCOCC1 | -8.21% | 25.9 µM [falling, single point] | 
O=C(Nc1ccc(Cl)cc1F)C1CC1c1ccccc1 (centres undefined) | 4.11% | 0.411 µM [rising, full curve] | 
CN(C)c1cccc(C(=O)N2CCC(n3nccc3NC(=O)C3CCOC3)CC2)c1 (centres undefined) | 1.7% | 2.91 µM [rising, single point] | 
COC(=O)c1nnn(CC(=O)NC(=O)Nc2c(C)cccc2C)c1C(=O)OC | 17.8% | 9.2 µM [rising, partial curve, poor fit] | 
COc1ccc(CCNC(=O)CSc2ncc(C(=O)Nc3ccccc3)c(=O)n2C)cc1 | 4% |  | 
CCSc1nnc(NC(=O)CSc2sc3c(O)cc(=O)[nH]c3c2C#N)s1 | 21.7% | 29.1 µM [rising, single point] | 
CCC(c1nnnn1C(C)(C)CC)N(CCCO)Cc1cc2cccc(C)c2[nH]c1=O (centres undefined) |  | 0.206 µM [rising, full curve, poor fit] | 
CN1CCN(C(=O)c2ccc(S(=O)(=O)Nc3ccccc3)cc2)CC1 | 13.5% |  | 
COc1ccc2nc(N)sc2c1 | -5.65% |  | 
COC(=O)c1ccccc1NC(NC(=O)c1ccco1)C(=O)c1ccc(C)cc1 (centres undefined) | 6.04% |  | 
COc1ccc(Br)cc1C(=O)N/N=C/c1ccc2c(c1)n(C)c(=O)n2C | 9.17% | 0.517 µM [rising, full curve, poor fit] | 
CCOC(=O)C1(Cc2ccc(OC)cc2)CCN(C(=O)Cn2cnnn2)CC1 | -6.57% |  | 
O=C1c2ccccc2C(=O)N1CC1=CCS(=O)(=O)C1 | 35.3% | 1.3 µM [falling, full curve, poor fit] | 
Cc1cc(NC(=O)NC2(C(F)(F)F)Oc3ccc(Cl)cc3O2)no1 (centres undefined) | -59.1% | 29.1 µM [falling, single point] | 23.1 µM [falling, single point]
CC(C)[C@H](NC(=O)C1CCC(CNC(=O)[C@@H]2CCCN2C(=O)OC(C)(C)C)CC1)C(=O)O (some centres undefined) | -1.39% | 29.1 µM [falling, single point] | 
CC(C)(C)OC(=O)N1CCCC1C(=O)N1CCCC1C(=O)N1CCCC1C(=O)O (stereo not drawn) (Boc-Pro-Pro-Pro-OH; configuration not given here) | -191% |  | 18.4 µM [falling, partial curve]
Cc1cccc(NC(=O)CSc2nnc(NC(=O)CN3CCCCC3)s2)c1 | 4.95% | 6.51 µM [falling, single point] | 
Cc1ccc(NC(=O)c2ccc3ncsc3c2)cc1S(=O)(=O)N(C)C | 14.6% | 0.013 µM [rising, full curve, poor fit] | 
CCC(C(=O)N1CCOCC1)n1nc(C)c2c(C)n(-c3ccccc3)nc2c1=O (centres undefined) | -0.295% | 1.64 µM [falling, partial curve] | 
N/C(Cc1ccc([N+](=O)[O-])cc1)=N\OC(=O)c1ccc(Br)cc1 |  | 18.4 µM [falling, partial curve] | 
C#CCSc1nc2sc3c(c2c(=O)n1C)CCC3 | 52.5% |  | 29.1 µM [rising, single point]

Structure (SMILES) | cell number change | AC50 [1] | AC50 [2]
Cc1ccc(S(=O)(=O)N2CCN(C(=O)COC(=O)Cc3cccc(C(F)(F)F)c3)CC2)c(C)c1 | -21.5% | 3.66 µM [falling, full curve] | 
O=C(N/C(=C/C=C\c1ccccc1)C(=O)N1CCOCC1)c1ccc(Br)cc1 | 6.15% | 6.51 µM [falling, single point] | 6.51 µM [falling, single point]
Cc1cccc(C)c1OCC(O)Cn1c2ccccc2c2ccccc21 (centres undefined) | -46.8% | 29.1 µM [falling, single point] | 16.4 µM [falling, partial curve, poor fit]
O=C(OCc1nnc(-c2ccccc2)o1)c1ccc(CO)cc1 | -1.97% | 2.59 µM [rising, partial curve, poor fit] | 0.366 µM [rising, partial curve, poor fit]
Cc1ccccc1Nc1c([N+](=O)[O-])cncc1[N+](=O)[O-] | -26.8% |  | 
COC(=O)c1cn(NC(=O)c2cccc(OC)c2)c(=O)c2ccccc12 | -21% | 0.0206 µM [falling, full curve, poor fit] | 
COc1cccc(CNC(=O)CCNC(=O)Cn2ccc3ccccc3c2=O)c1 | -40.6% | 0.0146 µM [falling, full curve, poor fit] | 10.3 µM [falling, partial curve]
COc1cc(Cl)ccc1OCc1cc(C(=O)N2C[C@@H]3CCC[C@H]2C3)no1 | 13.8% |  | 
CS(=O)(=O)c1ccc(Cl)c(NC(=O)COC(=O)Cc2c[nH]c3ccccc23)c1 | 16.9% | 16.4 µM [rising, single point] | 
O=C(COc1ccc(Cl)cc1)NCc1nnc(SCC(=O)NC2CCCCC2)o1 |  | 8.2 µM [falling, partial curve] | 
CC(=O)Nc1c(C)ccc2nsnc12 | 9.73% | 16.4 µM [falling, partial curve] | 
O=c1c2c3c(sc2nc2n1CCCS2)CCCC3 | -14.7% | 0.146 µM [rising, full curve, poor fit] | 
Nn1c(SCC(=O)Nc2ccc(N3CCOCC3)cc2)nnc1-c1ccccc1F | 3.23% |  | 
COC(=O)c1c(C(=O)OC)c(-c2ccc(C)cc2)n2c1CS(=O)(=O)C2 | 10.4% | 4.61 µM [rising, partial curve, poor fit] | 
Cc1ccc(C(=O)NCCc2cc3ccc(C)c(C)c3[nH]c2=O)cc1[N+](=O)[O-] | -2.82% |  | 0.82 µM [falling, full curve, poor fit]
S=c1[nH]nc(-c2cc(-c3ccccn3)nc3ccccc23)o1 |  | 0.82 µM [rising, partial curve] | 1.84 µM [rising, partial curve]
Cc1cc(O)c(C=Nc2ccc(Cl)cn2)c(=O)o1 | 81.8% |  | 29.1 µM [rising, single point]
CN(C)C(=O)CSc1ccccc1C(=O)OCC(=O)NC1CC1 | 24.9% | 9.2 µM [rising, partial curve] | 
CS(=O)(=O)N1CCN(c2ccc(NC(=O)c3ccccc3)cc2)CC1 | -15.3% | 0.00461 µM [falling, full curve, poor fit] | 
